Some results were stated once for a whole list of compounds, not compound by compound. For at least one compound, name, drawing or mass did not settle the structure.
Assay: Blood levels in rat following IP administration
Assay type: in vivo
Conditions: i.p., rats

CCCCNc1cc(C(=O)NN2CCOCC2)cc(S(N)(=O)=O)c1Oc1ccccc1 [NTP-2024, N-Morpholinyl 3-Aminosulfonyl-5-N-butylamino-4-phenoxybenzamide]
Time prodrug and bumetanide are present and stable in the rat's blood following administration: greater than 6 hours
